# Article doi:10.1101/2021.11.07.467636
# Sequences of proteins named here, by UniProt entry; tags and fusion partners are left off.
# UniProt Q02455: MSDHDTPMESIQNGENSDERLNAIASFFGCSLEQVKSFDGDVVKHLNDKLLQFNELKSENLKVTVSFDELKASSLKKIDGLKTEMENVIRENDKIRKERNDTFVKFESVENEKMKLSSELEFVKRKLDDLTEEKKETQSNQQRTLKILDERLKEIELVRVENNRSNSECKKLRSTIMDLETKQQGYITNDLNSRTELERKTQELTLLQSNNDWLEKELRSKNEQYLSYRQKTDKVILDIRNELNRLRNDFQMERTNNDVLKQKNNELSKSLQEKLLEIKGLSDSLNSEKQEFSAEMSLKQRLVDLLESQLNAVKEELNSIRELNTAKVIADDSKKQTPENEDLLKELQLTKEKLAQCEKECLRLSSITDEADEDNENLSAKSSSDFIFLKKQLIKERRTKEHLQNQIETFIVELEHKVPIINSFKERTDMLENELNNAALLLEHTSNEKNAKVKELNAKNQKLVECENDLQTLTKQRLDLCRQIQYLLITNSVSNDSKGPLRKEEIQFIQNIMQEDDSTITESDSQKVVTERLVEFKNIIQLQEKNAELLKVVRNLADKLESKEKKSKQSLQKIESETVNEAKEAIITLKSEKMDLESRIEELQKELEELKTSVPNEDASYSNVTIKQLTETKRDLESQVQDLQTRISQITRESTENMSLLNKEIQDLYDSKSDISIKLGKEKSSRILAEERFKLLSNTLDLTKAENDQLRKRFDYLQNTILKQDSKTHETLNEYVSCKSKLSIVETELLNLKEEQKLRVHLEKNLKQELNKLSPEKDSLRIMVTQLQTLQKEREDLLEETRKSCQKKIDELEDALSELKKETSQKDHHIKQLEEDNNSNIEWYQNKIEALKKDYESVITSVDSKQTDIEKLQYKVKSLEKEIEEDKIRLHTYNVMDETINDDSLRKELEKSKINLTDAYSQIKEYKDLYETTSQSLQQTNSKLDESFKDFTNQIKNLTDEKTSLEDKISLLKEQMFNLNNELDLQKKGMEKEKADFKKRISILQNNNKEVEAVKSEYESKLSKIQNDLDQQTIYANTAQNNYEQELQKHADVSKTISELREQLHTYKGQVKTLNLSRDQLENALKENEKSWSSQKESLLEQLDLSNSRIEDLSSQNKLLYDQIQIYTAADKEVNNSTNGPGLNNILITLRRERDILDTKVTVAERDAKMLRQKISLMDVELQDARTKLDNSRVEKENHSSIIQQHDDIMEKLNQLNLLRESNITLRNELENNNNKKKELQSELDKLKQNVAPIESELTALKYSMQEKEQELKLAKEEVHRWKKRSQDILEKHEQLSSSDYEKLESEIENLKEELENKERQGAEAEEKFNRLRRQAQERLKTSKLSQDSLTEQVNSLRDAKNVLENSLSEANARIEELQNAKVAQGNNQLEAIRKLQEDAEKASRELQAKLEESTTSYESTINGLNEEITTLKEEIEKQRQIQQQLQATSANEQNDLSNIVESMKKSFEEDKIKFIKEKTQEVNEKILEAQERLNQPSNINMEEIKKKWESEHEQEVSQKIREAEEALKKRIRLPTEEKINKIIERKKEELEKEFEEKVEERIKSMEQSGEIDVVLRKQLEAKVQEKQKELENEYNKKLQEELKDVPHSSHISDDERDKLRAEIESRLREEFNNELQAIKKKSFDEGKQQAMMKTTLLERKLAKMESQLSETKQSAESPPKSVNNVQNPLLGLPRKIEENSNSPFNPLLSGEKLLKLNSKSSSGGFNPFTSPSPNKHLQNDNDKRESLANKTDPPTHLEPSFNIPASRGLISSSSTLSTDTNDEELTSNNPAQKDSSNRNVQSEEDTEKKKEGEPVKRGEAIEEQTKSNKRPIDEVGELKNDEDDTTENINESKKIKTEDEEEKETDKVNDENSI
# Results are given in words; binding and its absence hold for the method and conditions named. In cells and extracts the contact can be indirect. Here binding means that the protein was enriched with, or labelled near, the bait; the list need not be complete. For part of these data: A no says only that the protein was not detected with the bait. For part of these data: Where a sequence is shown, tags or fusion partners need not be part of it.
# T1: Nup133-GFP (S. cerevisiae) (UniProt P36161)
# T1 sequence: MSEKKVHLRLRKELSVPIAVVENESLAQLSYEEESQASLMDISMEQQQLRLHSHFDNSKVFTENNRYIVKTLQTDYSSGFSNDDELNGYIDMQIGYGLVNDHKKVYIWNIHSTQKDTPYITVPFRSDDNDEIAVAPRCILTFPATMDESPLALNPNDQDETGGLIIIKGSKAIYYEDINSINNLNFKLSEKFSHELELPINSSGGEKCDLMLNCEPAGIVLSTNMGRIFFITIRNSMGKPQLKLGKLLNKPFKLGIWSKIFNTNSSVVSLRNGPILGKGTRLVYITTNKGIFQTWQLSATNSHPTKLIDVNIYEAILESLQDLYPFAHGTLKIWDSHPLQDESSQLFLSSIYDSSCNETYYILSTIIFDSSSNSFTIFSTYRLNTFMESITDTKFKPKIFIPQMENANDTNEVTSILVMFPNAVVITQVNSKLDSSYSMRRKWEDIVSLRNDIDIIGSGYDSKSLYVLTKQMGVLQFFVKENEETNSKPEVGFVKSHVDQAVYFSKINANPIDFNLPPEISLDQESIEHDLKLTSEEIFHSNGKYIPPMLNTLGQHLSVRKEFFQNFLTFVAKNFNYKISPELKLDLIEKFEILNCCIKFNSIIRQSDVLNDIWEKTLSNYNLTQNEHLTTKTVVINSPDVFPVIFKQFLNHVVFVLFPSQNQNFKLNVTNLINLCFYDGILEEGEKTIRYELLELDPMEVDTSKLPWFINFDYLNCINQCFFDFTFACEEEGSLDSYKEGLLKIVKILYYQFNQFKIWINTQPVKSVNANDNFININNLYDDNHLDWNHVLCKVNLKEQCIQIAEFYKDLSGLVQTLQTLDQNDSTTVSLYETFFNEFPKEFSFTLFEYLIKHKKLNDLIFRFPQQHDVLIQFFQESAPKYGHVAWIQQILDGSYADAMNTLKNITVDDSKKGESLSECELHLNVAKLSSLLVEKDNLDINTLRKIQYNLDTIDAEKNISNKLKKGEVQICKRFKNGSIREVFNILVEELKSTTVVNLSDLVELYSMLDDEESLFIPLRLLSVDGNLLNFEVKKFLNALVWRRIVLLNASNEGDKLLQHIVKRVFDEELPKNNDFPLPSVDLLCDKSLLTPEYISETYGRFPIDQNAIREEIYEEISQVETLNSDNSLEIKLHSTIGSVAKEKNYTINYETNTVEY
# Tests used:
# [1] = target: T1, Nup133-GFP (S. cerevisiae); test: affinity purification with mass spectrometry
# [2] = target: Mlp1-PrA (S. cerevisiae) (UniProt Q02455); test: affinity purification with mass spectrometry
# [3] = target: T1, Nup133-GFP (S. cerevisiae); test: condition: only in the flow-through after removal of Mlp1-PrA complexes
# [4] = target: Mlp1-PrA (S. cerevisiae), Q02455; test: affinity purification with mass spectrometry; settings: remark: other sources report otherwise
binding [1],binding [2],binding [3],binding [4],Binder
binds weakly,binds,no binding,–,"Sac3 (protein, UniProt P46674 1-1301) MNTSFGSVVPSTNFNFFKGHGNNDNTSANSTVNNSNFFLNSNETKPSKNVFMVHSTSQKKSQQPLQNLSHSPSYTENKPDKKKKYMINDAKTIQLVGPLISSPDNLGFQKRSHKARELPRFLINQEPQLEKRAFVQDPWDKANQEKMISLEESIDDLNELYETLKKMRNTERSIMEEKGLVDKADSAKDLYDAIVFQGTCLDMCPTFERSRRNVEYTVYSYEKNQPNDKKASRTKALKVFARPAAAAAPPLPSDVRPPHILVKTLDYIVDNLLTTLPESEGFLWDRMRSIRQDFTYQNYSGPEAVDCNERIVRIHLLILHIMVKSNVEFSLQQELEQLHKSLITLSEIYDDVRSSGGTCPNEAEFRAYALLSKIRDPQYDENIQRLPKHIFQDKLVQMALCFRRVISNSAYTERGFVKTENCLNFYARFFQLMQSPSLPLLMGFFLQMHLTDIRFYALRALSHTLNKKHKPIPFIYLENMLLFNNRQEIIEFCNYYSIEIINGDAADLKTLQHYSHKLSETQPLKKTYLTCLERRLQKTTYKGLINGGEDNLASSVYVKDPKKDRIPSIADQSFLMENFQNNYNEKLNQNSSVKPQINTSPKRVATRPNHFPFSQESKQLPQISQSHTLSTNPLLTPQVHGDLSEQKQQQIKTVTDGGSPFVFDQSAQNSTVEASKAHMISTTSNGAYDEKLSSEQEEMRKKEEQRIEEEKTQLKKKQENADKQVITEQIANDLVKEVVNSSVISIVKREFSEANYRKDFIDTMTRELYDAFLHERLYLIYMDSRAELKRNSTLKKKFFEKWQASYSQAKKNRILEEKKREEIKLVSHQLGVPGFKKSTCLFRTPYKGNVNSSFMLSSSDKNLIFSPVNDEFNKFATHLTKISKLWRPLEMQSIYYDNLTKKFPSNSLTPANLFIYAKDWTSLSNRWILSKFNLQTAQDSKKFSNNIISSRIICIDDEYEPSDFSDLQLLIFNTGVTNPDIFDLEMKLKDDGEELIKLITGISLNTNICFSLLIIYWESAENTLSESTIKHLLKLNRISKNYSSVIERIDLMNLTEESPHKCLEDKLSEISHSYVYKLTERGKYDKTLRQKRSLAGIHSRSTQLQTTKDIDQKMKKMLEKEKNKYQQQIGERNTYAHLESHIDASPRSKKRKLPILLSTSHSSQFKTPLASRLNTSGSSTSPPLPSHLAMKFRKNSRVTSLHTVLPVSTPSHSNNIPAASFSGNNTTDIQSQQLIENQKSTSVYLNNVSERILGNQEICQTPINPVTPVLDGADQGKEDIPDSILELKILIDSVKKKVNND"
binds weakly,–,no binding,–,"Cdc31 (protein, UniProt P06704 1-161) MSKNRSSLQSGPLNSELLEEQKQEIYEAFSLFDMNNDGFLDYHELKVAMKALGFELPKREILDLIDEYDSEGRHLMKYDDFYIVMGEKILKRDPLDEIKRAFQLFDDDHTGKISIKNLRRVAKELGETLTDEELRAMIEEFDLDGDGEINENEFIAICTDS"
–,–,–,binds,"Cdc31, P06704 1-161 (protein) MSKNRSSLQSGPLNSELLEEQKQEIYEAFSLFDMNNDGFLDYHELKVAMKALGFELPKREILDLIDEYDSEGRHLMKYDDFYIVMGEKILKRDPLDEIKRAFQLFDDDHTGKISIKNLRRVAKELGETLTDEELRAMIEEFDLDGDGEINENEFIAICTDS"
binds weakly,binds,no binding,–,"Thp1 (protein, UniProt Q08231 1-455) MDMANQLLDELAHGNFSHLTLNLSQNGREIAILQKQLTGFDDKQLETFVEQHPAMPNDTRFKIMCTSFLNYARDVDPWSAWSSSDLIFEFYQCLINCLINDNAPHIEMLIPVATRETEFIINLAGKLDSFHLQLHTRSHQFLSHISSILSRLFNSIKPPRGNASSTNIPGKQRILLYLVNKLNNIYFRIESPQLCSNIFKNFQPKSMLAHFNEYQLDQQIEYRYLLGRYYLLNSQVHNAFVQFNEAFQSLLNLPLTNQAITRNGTRILNYMIPTGLILGKMVKWGPLRPFLSQETIDNWSVLYKHVRYGNIQGVSLWLRQNERHLCARQLLIVLLEKLPMVTYRNLIKTVIKSWTTEWGQNKLPYSLIERVLQLSIGPTFEDPGAQEITIYNGIHSPKNVENVLVTLINLGLLRANCFPQLQLCVVKKTTMIQEIVPPVNERITKMFPAHSHVLW"
–,binds,–,–,"poly(A)-binding protein Nab2 (protein, UniProt P32505 1-525) MSQEQYTENLKVIVAEKLAGIPNFNEDIKYVAEYIVLLIVNGGTVESVVDELASLFDSVSRDTLANVVQTAFFALEALQQGESAENIVSKIRMMNAQSLGQSDIAQQQQQQQQQQQPDIAQQQPQQQPQQQPQQQPQQQPQQQPQQQPQQQPQQQPQLQPLQPQLGTQNAMQTDAPATPSPISAFSGVVNAAAPPQFAPVDNSQRFTQRGGGAVGKNRRGGRGGNRGGRNNNSTRFNPLAKALGMAGESNMNFTPTKKEGRCRLFPHCPLGRSCPHAHPTKVCNEYPNCPKPPGTCEFLHPNEDEELMKEMERTREEFQKRKADLLAAKRKPVQTGIVLCKFGALCSNPSCPFGHPTPANEDAKVIDLMWCDKNLTCDNPECRKAHSSLSKIKEVKPISQKKAAPPPVEKSLEQCKFGTHCTNKRCKYRHARSHIMCREGANCTRIDCLFGHPINEDCRFGVNCKNIYCLFRHPPGRVLPEKKGAAPNSNVPTNERPFALPENAIIENAPPQTSFTHQEQDTEMN"
–,binds,–,–,"poly(A)-binding protein Gbp2 (protein, UniProt P25555 1-427) MERELGMYGNDRSRSRSPVRRRLSDDRDRYDDYNDSSSNNGNGSRRQRRDRGSRFNDRYDQSYGGSRYHDDRNWPPRRGGRGRGGSRSFRGGRGGGRGRTLGPIVERDLERQFDATKRNFENSIFVRNLTFDCTPEDLKELFGTVGEVVEADIITSKGHHRGMGTVEFTKNESVQDAISKFDGALFMDRKLMVRQDNPPPEAAKEFSKKATREEIDNGFEVFIINLPYSMNWQSLKDMFKECGHVLRADVELDFNGFSRGFGSVIYPTEDEMIRAIDTFNGMEVEGRVLEVREGRFNKRKNNDRYNQRREDLEDTRGTEPGLAQDAAVHIDETAAKFTEGVNPGGDRNCFIYCSNLPFSTARSDLFDLFGPIGKINNAELKPQENGQPTGVAVVEYENLVDADFCIQKLNNYNYGGCSLQISYARRD"
–,binds,–,–,"pre-mRNA surveillance factor Pml39 (protein, UniProt Q03760 1-334) MEKDALEVRLKSIRHSLDKNTKLLPGKYRNTLGERLITKWRYKKKSHNGSSMLPEKCKSHVQLYDDLVQESSKHFVGFRLHDLRALLKRICSIQNYTRHVLIEWDVRWVNPLTLASKGWEPYQSASQSQVPFKCCCCHAIMTIPLLKNGDDVADYTMKLNEKIWNSNIIGNHLQKCPWRENQVDLNKEYYLSSQNLIREIERIHTEIDRIVSGSNEFSLKRNSSRIFHYLSEKEIQKLAFFFDCKDYSLVGLLLLGYTKFQKDDLVQCTACFHRASLKKLEYTEFNGHALWCRYYNKELLPTMLLELIGKEDKLITKLGVGERLNKLEAVLQTL"
binds weakly,binds,no binding,–,"Sus1 (protein, UniProt Q6WNK7 1-96) MTMDTAQLKSQIQQYLVESGNYELISNELKARLLQEGWVDKVKDLTKSEMNINESTNFTQILSTVEPKALEMVSDSTRETVLKQIREFLEEIVDTQ"
